Data from paper PMC12022009.

The chains behind the UniProt entries cited, without tags or fusion partners.
UniProt Q15365: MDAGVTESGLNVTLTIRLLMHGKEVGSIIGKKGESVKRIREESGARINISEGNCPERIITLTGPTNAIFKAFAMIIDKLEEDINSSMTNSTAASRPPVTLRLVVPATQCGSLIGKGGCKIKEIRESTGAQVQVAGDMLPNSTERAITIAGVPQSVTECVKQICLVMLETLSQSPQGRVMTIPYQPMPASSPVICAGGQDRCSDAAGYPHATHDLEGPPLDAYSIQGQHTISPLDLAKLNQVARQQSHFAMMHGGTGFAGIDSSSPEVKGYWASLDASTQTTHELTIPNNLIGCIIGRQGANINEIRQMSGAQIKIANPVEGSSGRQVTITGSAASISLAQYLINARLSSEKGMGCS

Target: T1, BCAT2 (human (endogenous in PCa cells)) (UniProt O15382)
T1 sequence: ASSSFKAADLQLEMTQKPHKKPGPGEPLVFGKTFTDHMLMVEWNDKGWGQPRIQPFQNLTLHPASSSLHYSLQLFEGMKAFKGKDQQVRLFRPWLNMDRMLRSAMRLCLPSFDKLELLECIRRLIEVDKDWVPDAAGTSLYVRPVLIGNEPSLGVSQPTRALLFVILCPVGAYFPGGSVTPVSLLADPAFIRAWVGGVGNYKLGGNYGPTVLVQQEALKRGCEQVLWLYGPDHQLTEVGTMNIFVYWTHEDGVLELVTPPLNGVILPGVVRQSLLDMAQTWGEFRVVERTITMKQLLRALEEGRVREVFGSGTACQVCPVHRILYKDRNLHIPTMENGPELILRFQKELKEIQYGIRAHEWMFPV
Test: affinity purification with mass spectrometry; Co-IP of BCAT2 from cell lysate against an IgG control; BCAT2-specific Coomassie-stained gel bands identified on a Q Exactive HF-X

PCBP1 (from UniProt Q15365 1-356)
binding: binds

These are yes or no findings as the source states them, for the method shown. Binding seen in cells or lysates may run through a third protein. Here binding means that the protein was enriched with, or labelled near, the bait; the list need not be complete.
